# These are yes or no findings as the source states them, for the method shown. Binding seen in cells or lysates may run through a third protein. Some entries that bind do so weakly or less than the wild type.
# By UniProt entry, the sequences of proteins in these tests, tags left out.
# UniProt Q96GX5: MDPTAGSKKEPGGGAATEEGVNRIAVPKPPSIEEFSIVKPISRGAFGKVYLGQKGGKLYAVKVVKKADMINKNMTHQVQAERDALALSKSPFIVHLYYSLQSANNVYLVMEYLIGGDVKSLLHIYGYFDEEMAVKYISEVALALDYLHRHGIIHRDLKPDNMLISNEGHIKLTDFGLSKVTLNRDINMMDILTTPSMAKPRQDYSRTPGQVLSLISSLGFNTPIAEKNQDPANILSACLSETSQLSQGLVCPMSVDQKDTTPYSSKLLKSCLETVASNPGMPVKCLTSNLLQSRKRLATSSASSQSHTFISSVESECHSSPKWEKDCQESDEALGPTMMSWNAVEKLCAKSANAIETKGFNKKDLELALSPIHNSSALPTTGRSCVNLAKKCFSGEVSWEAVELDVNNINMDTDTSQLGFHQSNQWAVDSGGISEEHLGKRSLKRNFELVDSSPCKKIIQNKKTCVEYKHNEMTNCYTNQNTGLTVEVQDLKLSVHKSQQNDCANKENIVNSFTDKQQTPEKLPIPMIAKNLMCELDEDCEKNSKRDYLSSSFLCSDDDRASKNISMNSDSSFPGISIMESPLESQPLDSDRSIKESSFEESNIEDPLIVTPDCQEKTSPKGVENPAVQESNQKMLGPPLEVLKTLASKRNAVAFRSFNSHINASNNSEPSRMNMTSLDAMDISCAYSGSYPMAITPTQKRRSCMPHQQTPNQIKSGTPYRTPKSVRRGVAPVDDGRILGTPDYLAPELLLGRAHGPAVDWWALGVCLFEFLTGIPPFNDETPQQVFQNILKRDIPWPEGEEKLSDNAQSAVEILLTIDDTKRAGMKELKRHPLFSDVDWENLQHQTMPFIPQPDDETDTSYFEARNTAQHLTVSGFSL
# UniProt P62140: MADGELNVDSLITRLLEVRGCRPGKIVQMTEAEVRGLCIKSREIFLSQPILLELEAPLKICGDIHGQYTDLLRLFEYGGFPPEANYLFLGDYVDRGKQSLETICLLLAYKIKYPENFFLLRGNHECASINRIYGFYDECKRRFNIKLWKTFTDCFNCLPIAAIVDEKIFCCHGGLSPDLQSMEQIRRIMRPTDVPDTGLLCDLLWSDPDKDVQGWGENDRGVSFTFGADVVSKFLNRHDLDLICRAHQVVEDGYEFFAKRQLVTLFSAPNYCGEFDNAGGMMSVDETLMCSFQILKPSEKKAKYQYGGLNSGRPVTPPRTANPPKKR
# UniProt P67775: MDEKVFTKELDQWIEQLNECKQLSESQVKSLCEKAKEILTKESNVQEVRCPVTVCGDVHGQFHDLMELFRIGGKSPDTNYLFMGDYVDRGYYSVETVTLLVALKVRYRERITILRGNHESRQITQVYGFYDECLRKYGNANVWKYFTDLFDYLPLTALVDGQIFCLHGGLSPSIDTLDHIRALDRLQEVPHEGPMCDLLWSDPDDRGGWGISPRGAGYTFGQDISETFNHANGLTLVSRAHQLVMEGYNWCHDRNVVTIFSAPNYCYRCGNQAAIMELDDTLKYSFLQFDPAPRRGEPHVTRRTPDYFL
# Columns and labels:
# [1] = target: microtubule-associated serine-threonine-like kinase (MASTL) (human (endogenous in HeLa)) (UniProt Q96GX5); experiment: proximity ligation; in situ PLA with pairs of primary antibodies on cells across interphase, prophase, prometaphase, metaphase, anaphase and telophase; dots counted with Imaris; detects two proteins within 40 nm
# [2] = target: microtubule-associated serine-threonine-like kinase (MASTL) (human (endogenous in HeLa)) (UniProt Q96GX5); experiment: co-IP; endogenous proteins from prometaphase and early mitotic exit (+RO3306) HeLa lysates; IgG- or primary-antibody-bound protein A/G magnetic beads mixed with lysates 16-18 h at 4°C; western blot; in some cases a second round of depletion 2 h at room temperature
# [3] = target: catalytic β subunit of PP1 (PPP1CB) (human (endogenous in HeLa)) (UniProt P62140); experiment: as above
binding [1],binding [2],binding [3],Substance
no binding,no binding,,"catalytic subunit of PP2A, PP2A/C (PPP2CA) (from UniProt P67775 1-309) (enzyme)"
binds,,,catalytic β subunit of PP1 (PPP1CB) (from UniProt P62140 1-327) (enzyme)
,,binds weakly,microtubule-associated serine-threonine-like kinase (MASTL) (from UniProt Q96GX5 1-879) (enzyme)
